Results as given in PubChem BioAssay AID624297 (National Center for Advancing Translational Sciences (NCATS), 2012).
The campaign covered roughly 340,000 compounds. About 6,200 (1.8%) were called active. The inconclusive results got no clear call from the source; some entries with a clear call stand among them for comparison. Calls come from the whole dose curve; as a rule, active = well fitted activation curve with a large enough effect; inconclusive = small, poorly fitted or top-dose-only effect; inactive = no such curve, though single readings can be large or run the other way. Where the call is inconclusive, the potency comes from a doubtful curve fit.

Assay: A quantitative high throughput screen for small molecules that induce DNA re-replication in SW480 colon adenocarcinoma cells. Note: nearly all actives have a fitted effect of over 55% in size.
Conditions: Hoechst DNA content imaging, 48 h; series mostly up to 46.1 µM
Method in brief: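 Readout is total intensity of Hoechst-stained nuclei, excited at 405 nm and collected at 500-530 nm. Compound treatment lasted 48 hr at 37 C in 5% CO2 before staining.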
Potency is the fitted concentration of half-maximal effect.

| Compound | Potency |
| --- | --- |
| CCOc1cc(CNC2CCCC2)cc(Cl)c1OCc1ccc(F)cc1 | inconclusive: 29.1 µM [activator, single point] |
| C/C(=N\NC(=O)c1csc2ccccc12)c1ccc(O)cc1 | inactive |
| NS(=O)(=O)c1ccc(N=Nc2c[nH]c(=O)c(O)c2)cc1 | inconclusive: 18.4 µM [activator, single point] |
| CC(C)(C)C1CCc2onc(C(=O)Nc3cnn(Cc4ccc(F)cc4)c3)c2C1 (stereo not drawn) | inconclusive: 18.4 µM [activator, single point] |
| O=C(CCc1nnc2ccc(N3CCOCC3)nn12)Nc1ccc(F)cc1F | inactive |
| Cc1cc(C)c2c(N)c(C(=O)c3cccc(Cl)c3)sc2n1 | inconclusive: 32.6 µM [activator, partial curve, poor fit] |
| CCOC(=O)C1=C(CCc2ccccc2)NC(=O)NC1c1cccc([N+](=O)[O-])c1 (stereo not drawn) | inconclusive: 6.51 µM [activator, single point] |
| Cc1ccc(CNC(=O)c2cc(-c3ccccc3)nn2CC2CC(c3cccnc3)=NO2)cc1 (stereo not drawn) | inconclusive: 4.11 µM [activator, partial curve, poor fit] |
| Cc1cccc(NC(=S)NNC(=O)c2csc(C)c2)c1 | inactive |
| Cc1cc2[nH]c(=O)c(=O)[nH]c2cc1S(=O)(=O)NC1CCCCC1C (stereo not drawn) | inactive |
| COc1cc2[nH]c(-c3cccc(F)c3)cc(=O)c2cc1OC | inconclusive: 29.1 µM [activator, single point] |
| O=C(Nc1ccc2c(c1)OCCO2)C1CCN(S(=O)(=O)c2ccc(Br)s2)CC1 | inconclusive: 29.1 µM [activator, single point] |
| COc1ccc(/C=N/NC(=O)c2ccc(COc3cccc4cccnc34)cc2)cc1O | inconclusive: 29.1 µM [activator, single point] |
| COc1ccc(/C=N/NC(=O)Nc2cccc3nsnc23)c(OC)c1 | inconclusive: 6.51 µM [activator, partial curve, poor fit] |
| CCCCN(C)CCCNC(=O)C1CCC(CNS(=O)(=O)c2c(C)cc(C)cc2C)CC1 (stereo not drawn) | inactive |
| CCCCN(CC)Cc1ccc(CNC(=S)Nc2ccccc2F)o1 | inconclusive: 29.1 µM [activator, single point] |
| CC1(C)CC(=S)Nc2ccccc2S1 | inconclusive: 13 µM [activator, partial curve, poor fit] |
| C=CCn1c(=N)c(C(=O)NCCCOC)cc2c(=O)n3cc(C)ccc3nc21 | inconclusive: 3.26 µM [activator, partial curve, poor fit] |

Pulled one by one from the list above (2):

| Compound | Potency |
| --- | --- |
| COc1ccc(/C=N/NC(=O)c2ccc(COc3cccc4cccnc34)cc2)cc1O | inconclusive: 29.1 µM [activator, single point] |
| Cc1cc(C)c2c(N)c(C(=O)c3cccc(Cl)c3)sc2n1 | inconclusive: 32.6 µM [activator, partial curve, poor fit] |
